Measurements reported in US20120220562A1, “Anti-Viral Compounds” (ABBOTT LABAORATORIES, priority 2011, published 2012).
Some of these results come from one statement about several compounds together. For some assays here: At least one compound was matched to its structure with a doubt left.

Key:
[1] = tested on: HCV 2a, 2b, 3a and 4a replicons; experiment: HCV 2a, 2b, 3a and 4a replicon assays in the absence of human plasma; assay type: cell-based; details: absence of HP
Method: The inhibitory effects of the compounds of the invention on HCV replication can be determined by measuring activity of the luciferase reporter gene. For example, replicon-containing cells can be seeded into 96 well plates at a density of 5000 cells per well in 100 μl DMEM containing 5% FBS. The following day compounds can be diluted in dimethyl sulfoxide (DMSO) to generate a 200× stock in a series of eight half-log dilutions. The dilution series can then be further diluted 100-fold in the medium containing 5% FBS. Medium with the inhibitor is added to the overnight cell culture plates already containing 100 μl of DMEM with 5% FBS. In assays measuring inhibitory activity in the presence of human plasma, the medium from the overnight cell culture plates can be replaced with DMEM containing 40% human plasma and 5% FBS. […] Luciferin solution (100 μl, Promega) can be added to each well, and luciferase activity can be measured with a Victor II luminometer (Perkin-Elmer). The percent inhibition of HCV RNA replication can be calculated for each compound concentration and the EC50 value can be calculated using nonlinear regression curve fitting to the 4-parameter logistic equation and GraphPal Prism 4 software.

[2] = tested on: HCV 1b-Con1 replicon; experiment: HCV 1b-Con1 replicon assay in the presence of 5% FBS; assay type: cell-based

With COC(=O)N[C@H](C(=O)N1CCC[C@H]1c1nc2ccc([C@H]3CC[C@H](c4ccc5nc([C@@H]6CCCN6C(=O)[C@@H](NC(=O)OC)C(C)C)[nH]c5c4)N3c3cc(F)c(C4CC4)c(F)c3)cc2[nH]1)C(C)C [Example 4.15, methyl {(2S)-1-[(2S)-2-{6-[(2R,5R)-1-(4-cyclopropyl-3,5-difluorophenyl)-5-{2-[(2S)-1-{(2S)-2-[(methoxycarbonyl)amino]-3-methylbutanoyl}pyrrolidin-2-yl]-1H-benzimidazol-6-yl}pyrrolidin-2-yl]-1H-benzimidazol-2-yl}pyrrolidin-1-yl]-3-methyl-1-oxobutan-2-yl}carbamate] the “EC50 values, fold less than those of Example 163 of the '301 application” value [1] was 2-4 fold.

With COC(=O)N[C@H](C(=O)N1C(c2nc3cc([C@H]4CC[C@H](c5ccc6[nH]c([C@@H]7C[C@@H]8CCC[C@@H]8N7C(=O)[C@@H](NC(=O)OC)C(C)C)nc6c5)N4c4ccc(C(C)(C)C)cc4)ccc3[nH]2)C[C@@H]2CCC[C@@H]21)C(C)C (stereo partly drawn) [Example 4.19, methyl {(2S)-1-[(2S,3aS,6aS)-2-{5-[(2R,5R)-1-(4-tert-butylphenyl)-5-{2-[(3aS,6aS)-1-{(2S)-2-[(methoxycarbonyl)amino]-3-methylbutanoyl}octahydrocyclopenta[b]pyrrol-2-yl]-1H-benzimidazol-5-yl}pyrrolidin-2-yl]-1H-benzimidazol-2-yl}hexahydrocyclopenta[b]pyrrol-1(2H)-yl]-3-methyl-1-oxobutan-2-yl}carbamate] the EC50 [2] was < 0.1 nM.
